Measured values: paper PMC11435022 (Pathogens, 2024)
Read-outs that look alike come from different tables or passages of the source.

Assays:
MRSA T144 [1] = details: for bacterial growth at 50% of the MIC, result in words: later growth climbs sharply, approaching the drug-free group; for bacterial growth at MIC, result in words: peptide at MIC, within 12 h
MRSA T144 [2] = details: DCFH-DA 10 µM, peptide 0, 8, 64, 128 μg/mL, 1 h
E. coli B2 [3] = details: for bacterial growth at sub-MICs, result in words: during 12 h; for bacterial growth at MIC, result in words: peptide at MIC, within 12 h
[4] = peptide 100 μg/mL, average of three scans
MRSA T144 and E. coli B2 = details: 10-fold MIC, 12 h, stationary-phase cells in M9 medium; both strains; three independent experiments
E. coli B2 [5] = details: DiSC3(5) 0.5 µM, peptide 0–128 μg/mL, 37 °C, 1 h
E. coli B2 [6] = details: DCFH-DA 10 µM, peptide 0, 8, 64, 128 μg/mL, 1 h
MRSA T144 [7] = details: DiSC3(5) 0.5 µM, peptide 0–128 μg/mL, 37 °C, 1 h

Row | Structure (SMILES) | bacterial growth at 50% of the MIC, result in words (MRSA T144 [1]) | bacterial growth at MIC, result in words (MRSA T144 [1]) | ROS level (DCFH-DA fluorescence), result in words (MRSA T144 [2]) | bacterial growth at sub-MICs, result in words (E. coli B2 [3]) | bacterial growth at MIC, result in words (E. coli B2 [3]) | Beta content (CD) ([4]; 50% TFEA) | Helix content (CD) ([4]; 50% TFEA) | Random content (CD) ([4]; 50% TFEA) | Turn content (CD) ([4]; 50% TFEA) | Beta content (CD) ([4]; LPS 50 µM) | Helix content (CD) ([4]; LPS 50 µM) | Random content (CD) ([4]; LPS 50 µM) | Turn content (CD) ([4]; LPS 50 µM) | Beta content (CD) ([4]; PBS 10 mM pH 7.4) | Helix content (CD) ([4]; PBS 10 mM pH 7.4) | Random content (CD) ([4]; PBS 10 mM pH 7.4) | Turn content (CD) ([4]; PBS 10 mM pH 7.4) | Beta content (CD) ([4]; SDS 50 mM) | Helix content (CD) ([4]; SDS 50 mM) | Random content (CD) ([4]; SDS 50 mM) | further results
1 | CC(C)C[C@H](NC(=O)[C@H](Cc1c[nH]c2ccccc12)NC(=O)[C@@H](NC(=O)[C@H](CC(C)C)NC(=O)[C@@H]1CCCN1C(=O)[C@@H](N)Cc1ccccc1)[C@@H](C)O)C(=O)N[C@@H](CCCCN)C(=O)N[C@@H](Cc1c[nH]c2ccccc12)C(=O)N[C@@H](Cc1c[nH]c2ccccc12)C(=O)N[C@@H](CCCCN)C(=O)N[C@@H](Cc1c[nH]c2ccccc12)C(=O)N[C@@H](CCCCN)C(=O)N[C@@H](CCCCN)C(N)=O [FK13] | completely restricted within the time frame of 0 to 4 h | almost no progress in bacterial growth | induced ROS generation in a dose-dependent manner | completely restricted | almost no progress in bacterial growth | 0 | 67 | 33 | 0 | 35.2 | 16.4 | 36.8 | 11.6 | 51.1 | 1.5 | 42.1 | 5.3 | 0 | 76.9 | 23.1 | Turn content (CD) ([4]; SDS 50 mM): 0; CFUs reduction (MRSA T144 and E. coli B2): 2–5 log10; membrane potential (DiSC3(5) fluorescence), result in words (E. coli B2 [5]): increased fluorescence intensity in a concentration-dependent manner; ROS level (DCFH-DA fluorescence), result in words (E. coli B2 [6]): induced ROS generation in a dose-dependent manner; membrane potential (DiSC3(5) fluorescence), result in words (MRSA T144 [7]): increased fluorescence intensity in a concentration-dependent manner
2 | CC[C@H](C)[C@H](NC(=O)[C@H](CCSC)NC(=O)[C@H](CCCCN)NC(=O)[C@H](C)NC(=O)[C@H](CCSC)NC(=O)[C@H](Cc1ccc(O)cc1)NC(=O)[C@H](CCCNC(=N)N)NC(=O)[C@@H](NC(=O)[C@H](CC(C)C)NC(=O)[C@H](CCCNC(=N)N)NC(=O)[C@H](CC(C)C)NC(=O)[C@@H](N)Cc1ccc(O)cc1)[C@@H](C)CC)C(N)=O [YI12] | completely restricted within the time frame of 0 to 4 h | almost no progress in bacterial growth | induced ROS generation in a dose-dependent manner | completely restricted | almost no progress in bacterial growth | 0 | 20.6 | 30.5 | 48.9 | 0 | 16.7 | 45 | 38.3 | 21.3 | 3.6 | 56 | 19.1 | 0 | 26.4 | 40.4 | Turn content (CD) ([4]; SDS 50 mM): 33.2; membrane potential (DiSC3(5) fluorescence), result in words (E. coli B2 [5]): increased fluorescence intensity in a concentration-dependent manner; ROS level (DCFH-DA fluorescence), result in words (E. coli B2 [6]): induced ROS generation in a dose-dependent manner; membrane potential (DiSC3(5) fluorescence), result in words (MRSA T144 [7]): increased fluorescence intensity in a concentration-dependent manner
